Measurements: patent publication US6525189
For part of these data: Results from cells or extracts need not show a direct contact. For part of these data: Negatives hold for the conditions tested.

Sequences of proteins named here, by UniProt entry; tags and fusion partners are left off.
UniProt O14813, whole entry: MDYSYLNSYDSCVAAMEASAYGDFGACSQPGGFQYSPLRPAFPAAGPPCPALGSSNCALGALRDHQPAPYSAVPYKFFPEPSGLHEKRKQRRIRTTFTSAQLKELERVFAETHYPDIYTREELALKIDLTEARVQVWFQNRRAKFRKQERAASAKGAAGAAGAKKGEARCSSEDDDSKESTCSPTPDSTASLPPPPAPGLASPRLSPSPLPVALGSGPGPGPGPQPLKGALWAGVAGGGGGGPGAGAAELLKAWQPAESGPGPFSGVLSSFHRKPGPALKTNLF
UniProt O35690, whole entry: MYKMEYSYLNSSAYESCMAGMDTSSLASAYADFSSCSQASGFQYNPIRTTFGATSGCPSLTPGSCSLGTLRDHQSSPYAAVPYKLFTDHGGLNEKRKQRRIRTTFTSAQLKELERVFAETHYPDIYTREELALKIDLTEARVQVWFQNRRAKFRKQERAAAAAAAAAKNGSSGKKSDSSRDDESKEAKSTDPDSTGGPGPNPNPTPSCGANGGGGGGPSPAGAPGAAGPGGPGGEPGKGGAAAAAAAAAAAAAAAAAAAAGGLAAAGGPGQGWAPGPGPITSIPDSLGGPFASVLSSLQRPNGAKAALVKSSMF
UniProt Q62066, whole entry: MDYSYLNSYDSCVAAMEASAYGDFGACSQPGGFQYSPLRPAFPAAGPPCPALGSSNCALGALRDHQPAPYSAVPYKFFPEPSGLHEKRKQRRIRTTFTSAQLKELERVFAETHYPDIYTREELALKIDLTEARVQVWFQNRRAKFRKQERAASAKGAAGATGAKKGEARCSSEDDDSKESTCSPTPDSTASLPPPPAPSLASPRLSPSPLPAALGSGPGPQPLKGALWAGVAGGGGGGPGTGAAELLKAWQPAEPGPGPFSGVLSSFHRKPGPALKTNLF
UniProt Q62782, whole entry: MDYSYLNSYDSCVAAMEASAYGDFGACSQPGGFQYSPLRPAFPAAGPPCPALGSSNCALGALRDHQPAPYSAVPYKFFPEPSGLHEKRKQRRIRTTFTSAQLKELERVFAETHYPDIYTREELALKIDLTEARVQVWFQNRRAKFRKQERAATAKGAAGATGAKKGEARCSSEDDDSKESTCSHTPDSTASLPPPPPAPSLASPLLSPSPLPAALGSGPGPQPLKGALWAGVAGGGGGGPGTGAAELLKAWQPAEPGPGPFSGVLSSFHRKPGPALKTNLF

Legend:
[1] = molecular target: Phox2a (SK-N-BE(2)C nuclear extract) (Homo sapiens) (UniProt O14813); experiment: EMSA; settings: protein in an extract, label: 32P
[2] = molecular target: Phox2a (SK-N-BE(2)C nuclear extract) (Homo sapiens) (UniProt O14813); experiment: footprint; settings: Phox2a site revealed by DNase I footprinting; protein source not stated; reporter activity 2.4 in BE cells (Table 2); protein in an extract
Phox2b = Phox2b (UniProt O35690); experiment: activity in cells; settings: 1xII-CAT in HeLa and C6; 4xII-CAT 200-300 fold; protein in cells; protein details: expressed from pRC/Phox2b (CMV promoter); only the site is given
[3] = molecular target: Phox2a (CATH.a nuclear extract) (Mus musculus) (UniProt Q62066); experiment: EMSA; settings: supershift with Phox2a antibody; protein in an extract; label: 32P
[4] = molecular target: Phox2a (PC12 nuclear extract) (Rattus norvegicus) (UniProt Q62782); experiment: EMSA; settings: supershift with Phox2a antibody; protein in an extract; label: 32P
[5] = complex comparable to wild type, robust supershift, variant of Domain II (DII)

## CCTATAGACAAATGTGATTACC (double strand) [Domain II m1]
[1]; [5]
  binding result: binds

## GAGGGAAAATTGGATTCCCCG (double strand) [PBD3 wild type (-105 to -85)]
[2]
  binding result: binds

## GTGTCATTAGTGCCAATTAGAG (double strand) [PRS1 (HD site of domain IV)]
[1]; dose-dependent supershift, cold PRS1 competes DII complexes more efficiently than cold DII
  binding result: binds

## CCGCTAGCTAAATGTGATTACC (double strand) [Domain II m2]
[1]; [5]
  binding result: binds

## CCGCTAGACAAACTTGATTACC (double strand) [Domain II m3]
[1]; complex without antibody reduced but supershift comparable to wild type, variant of Domain II (DII)
  binding result: binds

## CCGCTAGACAAATGTGATTACC (double strand) [Domain II (DII)]
Phox2b
  activity on this sequence: active
[3]
  binding result: binds
[4]
  binding result: binds

## CCGCTAGACAAATGTGATGCCC (double strand) [Domain II m4]
[1]; most severe defect, no robust supershifted band, variant of Domain II (DII)
  binding result: no binding
